Assay results from patent US20130071463A1, “IMPLANTS FOR POS[…]” (priority 2009, published 2013).

Assay: in vivo
Details: sheep, plasma, Morphine concentration in plasma, one AC33 and one AC34 implant each

## CN1CC[C@]23c4c5ccc(O)c4O[C@H]2[C@@H](O)C=C[C@H]3[C@H]1C5 [Morphine]
Average, average of 6 sheep
  concentration at 1 h: 5.4 ng/mL
Average, average of 6 sheep, 4 Hour
  concentration at 4 h: 8.5 ng/mL
Individual sheep
  concentration at 1 h: 5.3 ng/mL
